Earlier results as cited in PMC8221234 (Chemical biology & drug design, 2009).

What was measured:
PKR = conditions: cited from earlier work
HRI = conditions: cited from earlier work

CN[C@@H]1C[C@H]2O[C@@](C)([C@@H]1OC)n1c3ccccc3c3c4c(c5c6ccccc6n2c5c31)C(=O)NC4 [Staurosporine, staurosporine]
Sensitivity of PKR to inhibitor (qualitative) (PKR): resistant to this inhibitor
Sensitivity of HRI to inhibitor (qualitative) (HRI): resistant to this inhibitor
